Assay results as given in patent US9433687B2 (Pfizer Inc., priority 2012, dated 2016).

B1: ch28: rat-human chimeric anti-Notch3 antibody 28, rat variable regions fused with human IgG1 and human kappa (antibody, V domains shown)
VH: EVQLVESGGGLVQPGRSLTLSCVASGFTFRDYGMTWIRQAPGKGLTWVAYISSGSNYIYYAEAVKGRFTISRDNAKNTLYLQMTSLRSEDTALYFCTRRGPFVLDAWGQGASVTVSS
VL: DIQMTQSPSFLSASVGDRVTINCKASQSINRYLHWFQQKLGEAPKLLIYNANGLQTGIPSRFSGSGSGTDFTLTISSLQSEDVATYFCLQHNTWPDTFGAGTKLELK
B2: ch75: rat-human chimeric anti-Notch3 antibody 75, rat variable regions fused with human IgG1 and human kappa (antibody, V domains shown)
VH: QVKLLQSGAALVKPGASVKMSCKASGYAFTDYWVTWVKQSHGKSLEWIGEISPNSGGTNFNEKFKGKATLTVDKSTSTAYMELSRLTSEDSAIYYCTRGEIRYNWFAYWGQGTLVTVSS
VL: NIVMTQSPKSMSISVGDRVTMNCKASQNVGNNIAWYQQKPGQSPKLLIYYASNRYTGVPDRFTGGGYGTDFTLTINSMQAEDAAFYYCQRLYNSPFTFGSGTKLEIK

Assays:
[1] = general procedure: solution-phase peptide synthesis; HATU
[2] = system: Notch 1-3 NRR domain swap chimeras; experiment: Notch 1-3 NRR domain swap chimera ELISA (epitope mapping); format: binding, human; conditions: antibody at 5 ug/ml; FIG. 6
[3] = late stage modification step, HPLC Protocol A

Molecule	step yield ([1]; late stage modification step)	final HPLC purity [1, 3]	step yield ([1]; coupling step)	epitope binding profile to domains of the Notch3 NRR [2]	other results
2-methylalanyl-N-[(3R,4S,5S)-1-{(2S)-2-[(1R,2R)-3-{[(1S,2R)-1-hydroxy-1-phenylpropan-2-yl]amino}-1-methoxy-2-methyl-3-oxopropyl]pyrrolidin-1-yl}-3-methoxy-5-methyl-1-oxoheptan-4-yl]-N-methyl-L-valinamide	51%	>90%			
2-methylalanyl-N-[(3R,4S,5S)-3-methoxy-1-{(2S)-2-[(1R,2R)-1-methoxy-2-methyl-3-oxo-3-{[(1S)-2-phenyl-1-(1,3-thiazol-2-yl)ethyl]amino}propyl]pyrrolidin-1-yl}-5-methyl-1-oxoheptan-4-yl]-N-methyl-L-valinamide	75%	>97%			
N-[(9H-fluoren-9-ylmethoxy)carbonyl]-2-methylalanyl-N-[(3R,4S,5S)-1-{(2S)-2-[(1R,2R)-3-{[(1S,2R)-1-hydroxy-1-phenylpropan-2-yl]amino}-1-methoxy-2-methyl-3-oxopropyl]pyrrolidin-1-yl}-3-methoxy-5-methyl-1-oxoheptan-4-yl]-N-methyl-L-valinamide			95%		final HPLC purity ([1]; coupling step, HPLC Protocol B): >94%
N-[(9H-fluoren-9-ylmethoxy)carbonyl]-2-methylalanyl-N-[(3R,4S,5S)-3-methoxy-1-{(2S)-2-[(1R,2R)-1-methoxy-2-methyl-3-oxo-3-{[(1S)-2-phenyl-1-(1,3-thiazol-2-yl)ethyl]amino}propyl]pyrrolidin-1-yl}-5-methyl-1-oxoheptan-4-yl]-N-methyl-L-valinamide			74%		final HPLC purity ([1]; coupling step, HPLC Protocol A): >97%
B1				more dependent on the LNR-C and HD-1 domains	
B2				more dependent on the LNR-A and both the HD-1 and HD-2 domains	
